# Experimental data: PubChem BioAssay AID2685 (National Center for Advancing Translational Sciences (NCATS), 2010)
# The other results are listed elsewhere or left out. Shown are side measurements of this screen, not its main read-out; they come without a call. The list favours compounds with an active or inconclusive main result. Potencies come from curve fits of mixed quality, noted in brackets.
# Test: qHTS Assay for Lipid Storage Modulators in Drosophila S3 Cells;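 for cell number change: cells counted by Cell Tracker Red CMTPX staining in the red channel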
# Conditions: BODIPY lipid droplet fluorescence, 18-24 h; for cell number change: measured here: cell count max response, cells fed with added oleic acid
# Outline: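 Drosophila S3 cells loaded with oleic acid (400 uM, as added) and compounds at several concentrations; lipid droplets imaged by 488-nm laser-scanning cytometry, 500–530 nm intensity and object ratio to cell channel. Percent activity normalized to 20 uM Triacsin C.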
# [1] = measured here: cell number channel AC50, cells fed with added oleic acid
# [2] = measured here: lipid fluorescence (Fed channel) AC50, cells fed with added oleic acid
SMILES,cell number change [%],AC50 [1],AC50 [2]
COCCn1c(SCC(=O)Nc2ccc(C)cc2C)nc2c(oc3ccccc32)c1=O,18.4,"0.13 µM [rising, full curve, poor fit]","0.13 µM [falling, full curve, poor fit]"
O=C(COC(=O)CSc1ccc(F)cc1)NCCCc1ccccc1,-94.5,"29.1 µM [falling, single point]",–
CC(C(=O)NCc1ccco1)n1nc(-c2ccccc2)c2cc(Cl)ccc21 (stereo not drawn),-27.1,–,"29.1 µM [falling, partial curve, poor fit]"
Oc1cccc(/C=N/N(Cc2ccccc2)c2ccccc2)c1,-73.6,–,–
CC(C)SC1=NC(C)(C)C=C(/C=C/c2ccc(Cl)cc2Cl)N1,–,–,"2.91 µM [rising, partial curve]"
Cc1ccc(OCCNC(=O)CN2C(=O)NC3(CCCC3)C2=O)cc1,-41,"14.6 µM [falling, partial curve, poor fit]","8.2 µM [falling, partial curve, poor fit]"
O=C(Nc1ccccc1)c1cc2ccc3ccccc3c2s1,37.6,–,"16.4 µM [rising, single point]"
CC1=C(C(N)=O)C(c2cccs2)n2nc(-c3cccc(C)c3)nc2N1 (stereo not drawn),-14.2,–,"0.00461 µM [falling, full curve, poor fit]"
COC(=O)CCC(=O)N1CCc2cc(S(=O)(=O)N3CCc4ccccc43)ccc21,1.49,–,–
COc1cc2c(cc1OC)CN(C(=O)c1ccc3[nH]c(C)c(C)c3c1)CC2,-12,–,–
CSCCC(NC(=O)c1ccccc1Br)C(=O)N1CCCCCCC1 (stereo not drawn),-3.63,–,–
O=C(C1CCN(S(=O)(=O)c2cc(Cl)ccc2Cl)CC1)N1CCOCC1,15.3,–,"29.1 µM [rising, partial curve, poor fit]"
Cc1ccc(OCC(=O)N2CCOCC2)cc1C,-21.5,–,"0.326 µM [falling, full curve]"
CC/C(=N/NC(=O)c1ccc(Br)o1)c1ccc(Cl)cc1,-10.2,–,"2.06 µM [rising, partial curve]"
O=C(COC(=O)[C@@H]1CCCN1C(=O)c1cccs1)NCCc1ccccc1,-16.2,–,–
O=C(Nc1ccccc1N1CCCCC1)c1cccc(F)c1,-18.3,–,"5.17 µM [rising, full curve]"
COc1cccc(S(=O)(=O)Nc2ccc3sc(C)nc3c2)c1,-13.9,–,"6.51 µM [rising, single point]"
COc1ccc(C2SCC(C(=O)NCc3ccc(F)cc3)N2C(C)=O)cc1 (stereo not drawn),34.8,"32.6 µM [rising, single point]",–
O=C(NCc1ccc(N2CCCC2=O)cc1)c1cn(CCc2ccccc2)nn1,27.2,–,–
CSc1sc(C(=O)N(C)C)cc1S(=O)(=O)C(C)C,16.6,–,"6.51 µM [rising, partial curve, poor fit]"
CC(=O)C1=C(C)NC(SCC(=O)c2ccccc2)=C(C#N)C1c1ccco1 (stereo not drawn),-21.8,–,"0.731 µM [rising, single point]"
O=C(CN1CCN(S(=O)(=O)c2ccc(Cl)s2)CC1)NCc1ccc(Cl)cc1,1.85,–,–

SMILES,cell number change [%],AC50 [1],AC50 [2]
CN(C)c1ccc(C(=O)N/N=C/c2cc(Br)cc(Br)c2O)cc1,-30.6,"1.3 µM [falling, full curve, poor fit]",–
CCOc1cc(N2CCOCC2)c(OCC)cc1NC(=O)c1ccc(F)c(S(=O)(=O)N2CCOCC2)c1,20.5,–,–
COc1cc(CNCc2cccs2)ccc1OCC(N)=O,1.72,–,"2.06 µM [rising, partial curve, poor fit]"
C=CCn1c(N)c(C(=O)Nc2ccc(C)cc2)sc1=S,-1.07,–,"0.259 µM [rising, partial curve, poor fit]"
CCC(=O)N1CCN(c2ccc(NC(=O)c3ccc(-c4ccccc4)cc3)cc2)CC1,-47.2,"25.9 µM [falling, single point]","25.9 µM [falling, single point]"
Nc1ccc2oc(-c3cccs3)nc2c1,-13.3,–,"0.291 µM [rising, full curve]"
COc1cccc(-c2cc(C(=O)N3CCCCCC3)no2)c1,31,"18.4 µM [rising, partial curve]",–
COCCn1c(Cc2ccccc2)nnc1SCC(=O)N(C)C,2.02,–,"18.4 µM [falling, single point]"
CNc1ncc(C(=O)c2ccc(-c3ccccc3)cc2)s1,-1.93,–,–
CC(=O)Nc1ccc(S(=O)(=O)N2CCN(S(=O)(=O)N3CCCCC3)CC2)cc1,–,"2.91 µM [rising, single point]","6.51 µM [rising, partial curve, poor fit]"
Cc1ccc(N2C(=O)CC(N3CCN(c4ccccn4)CC3)C2=O)cc1 (stereo not drawn),12.1,–,"1.46 µM [rising, full curve, poor fit]"
CC(C)CSC1=NSC2=NC(=O)/C(=C\c3ccccc3)C(=N)N12,7.86,–,"2.91 µM [falling, partial curve]"
CCCCn1c(N)c(N(CCC(C)C)C(=O)c2ccc([N+](=O)[O-])s2)c(=O)[nH]c1=O,-16.3,–,–
CC(C)SC1=NC(C)(C)C=C(/C=C/c2c(Cl)cccc2Cl)N1,94.8,"0.231 µM [rising, full curve, poor fit]",–
CCc1noc(C)c1C(=O)Nc1ccc(C)c(S(=O)(=O)N2CCCCCC2)c1,40.7,"3.26 µM [rising, full curve]","0.92 µM [rising, partial curve]"
S=C(NCc1ccc2c(c1)OCO2)Nc1ccc2nsnc2c1,–,–,"4.11 µM [rising, partial curve, poor fit]"
c1ccc(Cn2cc(CN3CCCO3)c(-c3ccc4c(c3)OCO4)n2)cc1,33.6,–,"4.61 µM [rising, full curve, poor fit]"
C=CCN(C(=O)Nc1ccc(OC)cc1)c1nnc(-c2ccncc2)s1,-1.75,–,–
COC(=O)c1cccc(NC(=O)c2cc3sccc3n2C)c1,-18.4,–,–
Cc1ccc(NC(=O)c2ccc3c(c2)NC(=O)CS3)nc1,–,–,"29.1 µM [rising, single point]"
Cc1ncc(C[n+]2ccc(C)c(C)c2)c(N)n1,-1.13,–,"29.1 µM [rising, single point]"
CSc1ccc(/C=N/NC(=O)c2cccc(Cl)c2)cc1,11.6,"2.59 µM [rising, partial curve]",–

# As a short view, 4 of the compounds above:
SMILES,cell number change [%],AC50 [1],AC50 [2]
COCCn1c(SCC(=O)Nc2ccc(C)cc2C)nc2c(oc3ccccc32)c1=O,18.4,"0.13 µM [rising, full curve, poor fit]","0.13 µM [falling, full curve, poor fit]"
O=C(COC(=O)CSc1ccc(F)cc1)NCCCc1ccccc1,-94.5,"29.1 µM [falling, single point]",–
CC(C(=O)NCc1ccco1)n1nc(-c2ccccc2)c2cc(Cl)ccc21 (stereo not drawn),-27.1,–,"29.1 µM [falling, partial curve, poor fit]"
Oc1cccc(/C=N/N(Cc2ccccc2)c2ccccc2)c1,-73.6,–,–

# Following part:

SMILES,cell number change [%],AC50 [1],AC50 [2]
Cc1ccccc1-c1nc(CS(=O)CC(=O)NCCCN(C)c2ccccc2)c(C)o1 (stereo not drawn),-15.6,–,–
O=[N+]([O-])c1ccc2c(c1)OCCOCCOCCOCCOCCOCCO2,-10.4,–,"0.651 µM [falling, full curve, poor fit]"
Cc1cc(C(=O)COC(=O)c2ccc(N)c([N+](=O)[O-])c2)c(C)n1Cc1ccc2c(c1)OCO2,14.3,–,"0.326 µM [rising, full curve, poor fit]"
Cc1cccc2cc(C#N)c(SCC(=O)N3CCC(C)CC3)nc12,-20.6,–,"6.51 µM [rising, single point]"
O=C(NCCCN1CCOCC1)c1cc2ccccc2cc1O,52.9,"25.9 µM [rising, single point]",–
CCC(CC)NC(=O)Cc1ccccc1[N+](=O)[O-],-56.7,"11.6 µM [falling, partial curve]","14.6 µM [falling, partial curve]"
COc1ccccc1NC(=O)CSc1nn2c(=O)c(C)nnc2s1,-0.578,–,"18.4 µM [rising, partial curve]"
Cc1ccc(C)c(-c2csc(-c3cccnc3)n2)c1,-19.9,–,–
Cc1ccc(S(=O)(=O)Nc2ccc(S(=O)(=O)NCC3CCCO3)cc2)cc1 (stereo not drawn),13.5,–,"0.58 µM [falling, single point]"
Cc1ccc([N+](=O)[O-])c2c1C(N1CCCCC1)C(C)(C)O2 (stereo not drawn),-50.7,"5.8 µM [falling, full curve, poor fit]","2.31 µM [falling, full curve]"
O=C(NCCN1CCOCC1)C1CCN(c2ncnc3c2sc2cccc(F)c23)CC1,18.8,–,"16.4 µM [rising, single point]"
CC(=O)Nc1ccc(-c2nnc(SCC(=O)n3c4c(c5ccccc53)CCCC4)n2C)cc1,190,"6.51 µM [rising, full curve]","6.51 µM [rising, partial curve]"
O=S(=O)(Cc1ccccc1)N1CCN(Cc2ccc3c(c2)OCO3)CC1,-20.7,–,–
COc1cccc(NC(=O)c2oc3ccccc3c2NC(C)=O)c1,-24,–,"32.6 µM [falling, partial curve]"
COc1ccc(CCNC(=O)c2cc(-c3ccccc3)c(N3CCOCC3)s2)c(OC)c1OC,2.02,–,"0.13 µM [falling, full curve, poor fit]"
CN(C)CCNC(=O)c1cc(Br)ccc1Cl,134,–,–
N#Cc1cccc(CN2CCCN(Cc3ccc(F)cc3)S2(=O)=O)c1,13.5,–,"0.651 µM [rising, full curve, poor fit]"
Cc1ccccc1OCCOc1cccc(/C=N/NC(=O)Cc2nnc(N)s2)c1,-72.1,"29.1 µM [falling, single point]","29.1 µM [falling, partial curve, poor fit]"
COc1ccc([C@H]2CC(=O)C=C(c3cccc4c3Oc3ccccc3S4)C2)cc1,-17.1,–,"0.092 µM [falling, single point]"
NC(=S)NN=C1C2CC3CC(C2)CC1C3,23.7,"0.0231 µM [falling, full curve, poor fit]","13 µM [falling, single point]"
